PubChem BioAssay AID1439 (NMMLSC, 2008)
Screen size: about 220,000 compounds; about 770 (0.35%) were called active. The shares of active, inactive and inconclusive entries below differ from those in the screen. Cut-off read from the data, not from the text of the source: active = binding response below about 49% or above about 150%; inconclusive = no clear call, values can overlap the other calls; inactive = in between.

The chains behind the UniProt entries cited, without tags or fusion partners.
UniProt P09471, whole entry, looked up: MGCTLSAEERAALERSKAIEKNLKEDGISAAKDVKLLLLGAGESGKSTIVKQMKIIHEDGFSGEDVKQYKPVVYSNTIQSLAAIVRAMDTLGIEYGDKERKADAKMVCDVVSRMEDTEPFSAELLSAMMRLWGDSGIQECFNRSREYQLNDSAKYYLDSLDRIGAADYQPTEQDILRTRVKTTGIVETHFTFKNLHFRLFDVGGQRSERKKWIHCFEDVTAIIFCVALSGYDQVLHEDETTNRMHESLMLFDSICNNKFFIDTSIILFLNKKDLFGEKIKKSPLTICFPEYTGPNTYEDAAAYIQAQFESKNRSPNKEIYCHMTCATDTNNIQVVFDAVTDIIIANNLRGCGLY

Each molecule was assayed against Guanine nucleotide-binding protein G(o) subunit alpha (Homo sapiens) (UniProt P09471) (assay: RGS7-Galphao binding modulators, primary screen, biochemical, multiplexed bead flow cytometry (AID 1439;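 note: fluorescent Galphao held in activated GDP-AlF4 state binding bead-coupled RGS7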)). Conditions: at 10 µM, actives lie on both sides.

Row | SMILES | binding response (% of control)
1 | CC1(C)CC(N=Cc2c(O)n(Cc3ccc4c(c3)OCO4)c(=O)c3ccccc23)CC(C)(C)N1 | inconclusive: 114%
2 | COc1ccccc1C(=O)N=c1sc2c(C)ccc(OC)c2n1C | inconclusive: -217%
3 | Cc1cn(Cc2ccccc2)c(=O)[nH]c1=O | inactive: 102%
4 | Cc1ccc(C)c(N2N=C(C(=O)Nc3ccc(S(=O)(=O)N4CCCC4)cc3)CCC2=O)c1 | inconclusive: 121%
5 | O=C(c1cccs1)N1CCCC(c2nc3c(nnn3Cc3ccccc3)c(=O)[nH]2)C1 (centres undefined) | inconclusive: 117%
6 | COc1cc(N=Nc2cccc(S(N)(=O)=O)c2)c2ccccc2c1N | inconclusive: 107%
7 | Cc1cccc(C)c1NC(=S)N/N=C/c1ccccc1C(=O)O | inconclusive: 51.9%
8 | NC(=O)CC(NC(=O)c1ccc(Br)cc1)c1ccc(N2CCN(c3ccc(F)cc3)CC2)c([N+](=O)[O-])c1 (centres undefined) | inconclusive: 102%
9 | S=c1nc(-c2cc(Cl)ccc2Cl)[nH][nH]1 | inconclusive: 94.4%
10 | CCCCNc1cc(Cl)nc(N)n1 | inconclusive: 108%
11 | CC(C)c1ccc(NC(=S)Nc2ccc3cn[nH]c3c2)cc1 | inconclusive: 95.7%
12 | COC(=O)[C@@H]1C[C@@]2(O)[C@@H](O)[C@@H](O)[C@@H](O)C[C@H]2N1Cc1ccc(Cl)cc1 | inconclusive: 103%
13 | COc1cccc(CN2CCN(C(=O)c3cc(-c4cccnc4)nc4ccc(C)cc34)CC2)c1 | inconclusive: 90.2%
14 | CC(OC(=O)Nc1cccc(Cl)c1)C(=O)O (centres undefined) | inconclusive: 137%
15 | COc1ccc(NC(=O)CSc2nnc(C3CCCCC3)n2N)cc1 | inconclusive: 258%
16 | Cc1ccc(-c2csc(NC(=O)C3=NN(C4CCS(=O)(=O)C4)C(=O)CC3)n2)cc1 (centres undefined) | inconclusive: 55.4%
17 | CCN(CC)c1ccc(/C=N/N2CCN(c3ccccn3)CC2)cc1 | inconclusive: 81.2%
18 | CC(CC(=O)O)CC(=O)Nc1ccc(Br)cc1 (centres undefined) | inconclusive: 25.5%
19 | COc1cccc(Oc2c(C)oc3c(CN4CCCCC4)c(O)ccc3c2=O)c1 | inconclusive: 85.5%
20 | COc1cc(NC(=O)c2cccc(COCC(F)(F)C(F)F)c2)cc(OC)c1OC | inactive: 97.1%
21 | Cc1cccc(C)c1OCC(O)CN(Cc1ccccc1O)C1CCCCC1 (centres undefined) | inconclusive: 102%
22 | CCOC(=O)CNc1nc(Cl)nc(Nc2ccc(C)cc2)n1 | inconclusive: 70.3%
23 | COc1cc2c(cc1OC)-c1cc(Nc3ccccc3)nc(=O)n1CC2 | inconclusive: 107%

Row | SMILES | binding response (% of control)
24 | O=C(C1=C(O)C(=O)N(CCOCCO)C1c1ccccn1)c1cccs1 (centres undefined) | inconclusive: 114%
25 | Nc1nnc(CSCc2ccccc2Cl)s1 | inconclusive: -967%
26 | NC(=O)CC(NC(=O)c1ccccc1)c1ccc(NC2CCC2)c([N+](=O)[O-])c1 (centres undefined) | inconclusive: 96.3%
27 | CC(C)(C)CN1C(=O)C(=O)NC[C@H]1Cc1ccc(O)cc1 | inconclusive: 130%
28 | CCCNc1nc(Cl)nc(NCc2cccnc2)n1 | inconclusive: 95.6%
29 | Cc1[nH]nc(Nc2ccc(Br)cc2)c1[N+](=O)[O-] | inconclusive: 186%
30 | O=C(c1cccc([N+](=O)[O-])c1)N1CCCC(C(=O)N2CCCCC2)C1 (centres undefined) | inconclusive: 85.8%
31 | COC(=O)C1=C(C(=O)OC)[C@@H]2N(Cc3ccccc3)c3ccccc3[C@@]23C[C@@H](C(=O)OC)N(C(=O)CC(C)C)C3=N1 | inconclusive: 120%
32 | O=[N+]([O-])c1cc(/C=N/N/C(=N/c2ccccn2)c2ccccn2)ccc1O | inconclusive: 109%
33 | N#Cc1cccc(NC(=O)CC2CCCCC2)c1 | inactive: 108%
34 | Cc1cc(N2CCN(C)CC2)nc2ccc(NC(=S)NCCCN3CCN(C)CC3)cc12 | inconclusive: 112%
35 | Cc1cc(=O)[nH]c(SCC(=O)Nc2ccc(Br)cc2)n1 | inconclusive: 94.4%
36 | COc1ccc(CN2C(=O)N(c3ccc(OC)cc3)C(=O)C2CC(=O)Nc2ccccc2)cc1 (centres undefined) | inconclusive: 113%
37 | N#CCCN1CCN(C2=NC(=O)/C(=C\c3cccs3)S2)CC1 | inactive: 104%
38 | CCOc1ccc(CCNc2nc3ccccc3n3cnnc23)cc1OCC | inconclusive: 30%
39 | COc1cc(OC)c2cc(C(=O)N/N=C/c3cccc(OC)c3O)[nH]c2c1 | inconclusive: 119%
40 | Clc1ccccc1-c1nnc2n1CCCCC2 | inconclusive: -91.9%
41 | CC(=O)c1ccc(S(=O)(=O)Nc2cccc(-c3cn4c(n3)SCC4)c2)cc1 | inconclusive: 104%
42 | N#Cc1ccc(NCCc2ccccn2)c([N+](=O)[O-])c1 | inconclusive: 75.5%
43 | O=C(NCc1nc(-c2ccc(C(F)(F)F)cc2)no1)c1cccs1 | inconclusive: 100%
44 | CSCC(O)Cn1[nH]c(=O)c2cc(Cl)c(Cl)cc2c1=O (centres undefined) | inconclusive: 94.7%
45 | CCOC(=O)c1cnc(COc2ccc(OC)cc2)[nH]c1=O | inconclusive: 128%
46 | CC(=O)Nc1ccc(S(=O)(=O)C(C#N)c2nc3ccccc3nc2NCCCO)cc1 (centres undefined) | inconclusive: 103%

Row | SMILES | binding response (% of control)
47 | O=C(Nc1nnc(-c2cccnc2)s1)c1cccs1 | inconclusive: 101%
48 | CCOc1ccccc1NC(=O)c1cc(SC)ccc1Cl | inactive: 99.7%
49 | COc1ccc(C(=O)N2CC3(CC(c4cccc(NC(=O)CC(c5ccccc5)c5ccccc5)c4)=NO3)C[C@H]2C(N)=O)cc1 (some centres undefined) | inconclusive: 104%
50 | Cc1cc(C)n2c(SCC(=O)Nc3ccc(F)cc3)nnc2n1 | inconclusive: -6.58%
51 | CC#CC[N+](C)(C)CCCCCCCCCCCC | inactive: 101%
52 | O=C(N[C@H]1CC1c1ccccc1)c1ccc([N+](=O)[O-])cc1 (some centres undefined) | inconclusive: 109%
53 | CC1(C)Cc2c(c(N3CCOCC3)nc3sc4c(NCC5CCCO5)nnnc4c23)CS1 (centres undefined) | inconclusive: 48.8%
54 | CCN(c1ccccc1)S(=O)(=O)c1ccc(C(=O)Oc2ccc(C(C)=O)cc2)cc1 | inactive: 98%
55 | Cc1ccc2c(c1)C1CN(C)CCC1N2C(=O)COc1ccccc1F (centres undefined) | inconclusive: 96.1%
56 | Cc1cc(C)c(S(=O)(=O)Nc2ccccc2C(=O)OCC(=O)NCc2ccccc2)c(C)c1 | inactive: 96.5%
57 | Cc1cc(C)nc(NS(=O)(=O)c2ccc(NC(=S)NC(=O)CC(C)C)cc2)n1 | active: 194% [activator]
58 | O=C(O)CSc1nc(-c2ccccc2)c(-c2ccccc2)[nH]1 | inconclusive: 107%
59 | CC(=O)Oc1cc2oc(=O)cc(C)c2cc1Cl | inconclusive: 103%
60 | CCC(C)[C@H](NC(=O)N1CCCCCC1)C(=O)O (some centres undefined) | inconclusive: 123%
61 | Brc1ccc(-c2ccc(/C=N/Nc3nc4ccccc4[nH]3)o2)cc1 | inactive: 99.2%
62 | O=C(Nc1ccc2c(c1)oc1ccccc12)C1CC1 | inactive: 104%
63 | O=C(Nn1c(SCc2ccc(F)cc2)nc2ccsc2c1=O)c1ccccc1 | inactive: 93.9%
64 | CN(C)c1ccc(C2Nc3ccccc3C(=O)N2CCCN2CCOCC2)cc1 (centres undefined) | inconclusive: 40.5%
65 | Cc1ccc2nc(-c3ccccn3)cc(C(=O)Nc3ccc4c(c3)OCO4)c2c1 | inconclusive: 95.1%
66 | COCCCn1c(SCC(=O)NNC(=O)c2cccc(O)c2)nnc1-c1ccncc1 | inactive: 98.8%
67 | O=C1CSC(c2cccnc2)N1CCc1ccccn1 (centres undefined) | inconclusive: 104%
68 | O=C(Nc1cccc(-c2nnc(-c3ccccc3)o2)c1)C1CC1 | inconclusive: 99.3%
69 | Cc1cc(C(=O)N/N=C2\CC(=O)c3ccccc32)c(C)n1-c1ccc(F)cc1 | inconclusive: 88.6%

24 compounds from above, arranged by heavy-atom count, ascending:
Row | SMILES | binding response (% of control)
10 | CCCCNc1cc(Cl)nc(N)n1 | inconclusive: 108%
9 | S=c1nc(-c2cc(Cl)ccc2Cl)[nH][nH]1 | inconclusive: 94.4%
25 | Nc1nnc(CSCc2ccccc2Cl)s1 | inconclusive: -967%
59 | CC(=O)Oc1cc2oc(=O)cc(C)c2cc1Cl | inconclusive: 103%
60 | CCC(C)[C@H](NC(=O)N1CCCCCC1)C(=O)O (some centres undefined) | inconclusive: 123%
62 | O=C(Nc1ccc2c(c1)oc1ccccc12)C1CC1 | inactive: 104%
44 | CSCC(O)Cn1[nH]c(=O)c2cc(Cl)c(Cl)cc2c1=O (centres undefined) | inconclusive: 94.7%
27 | CC(C)(C)CN1C(=O)C(=O)NC[C@H]1Cc1ccc(O)cc1 | inconclusive: 130%
45 | CCOC(=O)c1cnc(COc2ccc(OC)cc2)[nH]c1=O | inconclusive: 128%
7 | Cc1cccc(C)c1NC(=S)N/N=C/c1ccccc1C(=O)O | inconclusive: 51.9%
43 | O=C(NCc1nc(-c2ccc(C(F)(F)F)cc2)no1)c1cccs1 | inconclusive: 100%
12 | COC(=O)[C@@H]1C[C@@]2(O)[C@@H](O)[C@@H](O)[C@@H](O)C[C@H]2N1Cc1ccc(Cl)cc1 | inconclusive: 103%
24 | O=C(C1=C(O)C(=O)N(CCOCCO)C1c1ccccn1)c1cccs1 (centres undefined) | inconclusive: 114%
41 | CC(=O)c1ccc(S(=O)(=O)Nc2cccc(-c3cn4c(n3)SCC4)c2)cc1 | inconclusive: 104%
63 | O=C(Nn1c(SCc2ccc(F)cc2)nc2ccsc2c1=O)c1ccccc1 | inactive: 93.9%
19 | COc1cccc(Oc2c(C)oc3c(CN4CCCCC4)c(O)ccc3c2=O)c1 | inconclusive: 85.5%
5 | O=C(c1cccs1)N1CCCC(c2nc3c(nnn3Cc3ccccc3)c(=O)[nH]2)C1 (centres undefined) | inconclusive: 117%
46 | CC(=O)Nc1ccc(S(=O)(=O)C(C#N)c2nc3ccccc3nc2NCCCO)cc1 (centres undefined) | inconclusive: 103%
34 | Cc1cc(N2CCN(C)CC2)nc2ccc(NC(=S)NCCCN3CCN(C)CC3)cc12 | inconclusive: 112%
56 | Cc1cc(C)c(S(=O)(=O)Nc2ccccc2C(=O)OCC(=O)NCc2ccccc2)c(C)c1 | inactive: 96.5%
13 | COc1cccc(CN2CCN(C(=O)c3cc(-c4cccnc4)nc4ccc(C)cc34)CC2)c1 | inconclusive: 90.2%
8 | NC(=O)CC(NC(=O)c1ccc(Br)cc1)c1ccc(N2CCN(c3ccc(F)cc3)CC2)c([N+](=O)[O-])c1 (centres undefined) | inconclusive: 102%
31 | COC(=O)C1=C(C(=O)OC)[C@@H]2N(Cc3ccccc3)c3ccccc3[C@@]23C[C@@H](C(=O)OC)N(C(=O)CC(C)C)C3=N1 | inconclusive: 120%
49 | COc1ccc(C(=O)N2CC3(CC(c4cccc(NC(=O)CC(c5ccccc5)c5ccccc5)c4)=NO3)C[C@H]2C(N)=O)cc1 (some centres undefined) | inconclusive: 104%

(continued)

Row | SMILES | binding response (% of control)
70 | CCOC(=O)c1nc(C)nc(Sc2n[nH]c(-c3ccccc3)n2)c1C | inconclusive: 220%
71 | Cc1ccc(Cl)cc1NC(=O)C1CC(=O)Nc2ncnn21 (centres undefined) | inconclusive: 93.4%
72 | Cc1ccc([N+](=O)[O-])cc1NC(=S)NC(=O)c1cccnc1 | inconclusive: 96.5%
73 | OC(c1ccccn1)c1c[nH]c2ccccc12 (centres undefined) | inactive: 97.3%
74 | O=C(COc1ccccc1C(=O)NCC1CCCO1)Nc1ccc(Cl)cc1Cl (centres undefined) | inconclusive: 90.5%
75 | O=C(Cn1cnc2ccccc21)OCC(=O)N1CCc2ccccc2C1 | inactive: 141%
76 | COc1ccc(CCNC2CC(=O)N(C3CCCCC3)C2=O)cc1OC (centres undefined) | inactive: 106%
77 | O=C(CN1CCN(c2ccc(Cl)cc2)CC1)N1CCCC1 | inactive: 102%
78 | COC(=O)c1ccc(/C=N/NC(=O)C(=O)NCC2CCCO2)cc1 (centres undefined) | inconclusive: -216%
79 | Cc1ccc([N+](=O)[O-])cc1N(CC(=O)N1CCCCC1)S(C)(=O)=O | inconclusive: 102%
80 | COc1cc(NC(=S)N2CCCC(C)C2)cc(OC)c1OC (centres undefined) | inconclusive: 103%
81 | O=C(CSc1nc2ncc(Cl)cc2[nH]1)N(Cc1ccccc1)C1CCS(=O)(=O)C1 (centres undefined) | inconclusive: 101%
82 | O=C(O)c1ccccc1-c1ccccc1C(=O)Nc1cccc(Br)c1 | inconclusive: 54.6%
83 | Cc1cccc(/C(N)=N/OC(=O)Cc2ccccc2)c1 | inactive: 110%
84 | CN(C)Cc1c(O)ccc2c1O/C(=C\C=C\c1ccccc1)C2=O | inconclusive: 128%
85 | COCCNC(=O)Cn1cc(C(=S)N2CCCCC2)c2ccccc21 | inactive: 95.1%
86 | CN(C(=O)CN(c1ccccc1)S(=O)(=O)c1ccc(F)cc1)C1CCS(=O)(=O)C1 (centres undefined) | inconclusive: 62.3%
87 | O=C(O)C(Cc1ccc(O)cc1)N1C(=O)C2CCCCC2C1=O (centres undefined) | inconclusive: 76.4%
88 | CC1(C)Cc2c(sc3c2c(=N)n(Cc2ccco2)c(=O)n3Cc2ccc(F)cc2)CO1 | inactive: 96.9%
89 | Cc1onc(-c2ccccc2Cl)c1C(=O)Nc1ccc(Cl)cn1 | inconclusive: 98.1%
